This is an account of results in article PMC7021685.

Sequences of proteins named here, by UniProt entry; tags and fusion partners are left off.
UniProt P98170: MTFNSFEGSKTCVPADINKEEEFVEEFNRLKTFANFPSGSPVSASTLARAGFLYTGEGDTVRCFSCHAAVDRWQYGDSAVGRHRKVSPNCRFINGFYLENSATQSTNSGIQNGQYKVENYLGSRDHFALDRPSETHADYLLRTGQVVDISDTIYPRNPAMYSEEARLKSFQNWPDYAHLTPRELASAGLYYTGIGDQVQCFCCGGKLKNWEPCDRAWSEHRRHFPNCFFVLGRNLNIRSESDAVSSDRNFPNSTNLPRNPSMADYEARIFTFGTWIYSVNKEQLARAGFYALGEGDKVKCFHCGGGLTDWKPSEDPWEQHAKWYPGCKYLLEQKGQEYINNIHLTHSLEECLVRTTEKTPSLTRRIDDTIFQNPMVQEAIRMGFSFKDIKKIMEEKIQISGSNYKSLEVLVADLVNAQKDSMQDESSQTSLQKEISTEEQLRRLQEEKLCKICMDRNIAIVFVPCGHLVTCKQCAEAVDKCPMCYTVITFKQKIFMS
UniProt P00441: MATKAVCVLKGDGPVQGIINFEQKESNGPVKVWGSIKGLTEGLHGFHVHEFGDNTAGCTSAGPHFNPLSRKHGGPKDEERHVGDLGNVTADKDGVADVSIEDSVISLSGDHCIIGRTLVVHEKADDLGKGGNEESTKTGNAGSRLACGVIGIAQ

Results are given in words; binding and its absence hold for the method and conditions named. In cells and extracts the contact can be indirect. Some binding calls cover weakened binding; strength is not graded here.

Experiment [1] addresses X-linked inhibitor of apoptosis (XIAP) (human (endogenous in Ls174t)) (UniProt P98170). The experiment can be described thus: co-IP; lysates of the STEAP4-inducible Ls174t clone with STEAP4 overexpression (doxycycline); lysis buffer 1% Triton X-100, 50 mM Tris-HCl pH 7.4, 150 mM NaCl; antibody plus protein A/G Sepharose beads overnight at 4 °C; western blot.
The target is the same in experiment [2]. The experiment is described as follows: co-IP; lysates of the STEAP4-inducible Ls174t clone without STEAP4 induction; lysis buffer 1% Triton X-100, 50 mM Tris-HCl pH 7.4, 150 mM NaCl; antibody plus protein A/G Sepharose beads overnight at 4 °C; western blot. In general terms: Immunoblotting shows a protein as a band on a membrane.

As for “superoxide dismutase 1 (SOD1) (from UniProt P00441 1-154)”, the binding result in experiment [1] is listed as “no binding (condition: with STEAP4 overexpression)”; in experiment [2] it was “binds”.

B1: copper chaperone for superoxide dismutase (CCS) (protein, UniProt O14618 1-274)
chain: MASDSGNQGTLCTLEFAVQMTCQSCVDAVRKSLQGVAGVQDVEVHLEDQMVLVHTTLPSQEVQALLEGTGRQAVLKGMGSGQLQNLGAAVAILGGPGTVQGVVRFLQLTPERCLIEGTIDGLEPGLHGLHVHQYGDLTNNCNSCGNHFNPDGASHGGPQDSDRHRGDLGNVRADADGRAIFRMEDEQLKVWDVIGRSLIIDEGEDDLGRGGHPLSKITGNSGERLACGIIARSAGLFQNPKQICSCDGLTIWEERGRPIAGKGRKESAQPPAHL
Take B1: the values for the binding entry in experiment [1] and in experiment [2] were “no binding (condition: with STEAP4 overexpression)” and “binds”, respectively.
